These are yes or no findings as the source states them, for the method shown. Binding seen in cells or lysates may run through a third protein. Some results given as binding are weak or reduced against the parent protein; the word gives no strength.
Target: T1, endogenous TMEM30A in mouse brain (mouse (endogenous in brain)) (UniProt Q8VEK0)
T1 sequence: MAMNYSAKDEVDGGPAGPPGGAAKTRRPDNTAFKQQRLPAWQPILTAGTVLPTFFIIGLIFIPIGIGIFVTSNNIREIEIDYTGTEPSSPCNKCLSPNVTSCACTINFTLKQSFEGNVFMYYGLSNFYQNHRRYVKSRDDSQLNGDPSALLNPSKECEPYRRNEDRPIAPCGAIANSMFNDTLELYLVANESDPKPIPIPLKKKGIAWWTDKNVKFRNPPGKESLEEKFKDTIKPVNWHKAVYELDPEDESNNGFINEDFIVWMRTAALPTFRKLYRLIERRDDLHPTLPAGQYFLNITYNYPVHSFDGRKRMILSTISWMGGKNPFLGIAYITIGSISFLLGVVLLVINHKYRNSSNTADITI
Experiment: co-IP

B1: endogenous ATP8A1 in mouse brain (enzyme, UniProt P70704 1-1164)
chain: MPTMRRTVSEIRSRAEGYEKTDDVSEKTSLADQEEVRTIFINQPQLTKFCNNHVSTAKYNVITFLPRFLYSQFRRAANSFFLFIALLQQIPDVSPTGRYTTLVPLLFILAVAAIKEIIEDIKRHKADNAVNKKQTQVLRNGAWEIVHWEKVAVGEIVKVTNGEHLPADLLSLSSSEPQAMCYIETSNLDGETNLKIRQGLPATSDIKDIDSLMRISGRIECESPNRHLYDFVGNIRLDGHGTVPLGADQILLRGAQLRNTQWVHGIVVYTGHDTKLMQNSTSPPLKLSNVERITNVQILILFCILIAMSLVCSVGSAIWNRRHSGKDWYLHLHYGGASNFGLNFLTFIILFNNLIPISLLVTLEVVKFTQAYFINWDLDMHYEPTDTAAMARTSNLNEELGQVKYIFSDKTGTLTCNVMQFKKCTIAGVAYGHVPEPEDYGCSPDEWQSSQFGDEKTFNDPSLLDNLQNNHPTAPIICEFLTMMAVCHTAVPEREGDKIIYQAASPDEGALVRAAKQLNFVFTGRTPDSVIIDSLGQEERYELLNVLEFTSARKRMSVVVRTPSGKLRLYCKGADTVIYERLAETSKYKEITLKHLEQFATEGLRTLCFAVAEISESDFEEWRAVYHRASTSVQNRLLKLEESYELIEKNLQLLGATAIEDKLQDQVPETIETLMKADIKIWILTGDKQETAINIGHSCRLLKRNMGMIVINEGSLDGTRETLSRHCTTLGDALRKENDFALIIDGKTLKYALTFGVRQYFLDLALSCKAVICCRVSPLQKSEVVEMVKKQVKVITLAIGDGANDVSMIQTAHVGVGISGNEGLQAANSSDYSIAQFKYLKNLLMVHGAWNYNRVSKCILYCFYKNIVLYIIEIWFAFVNGFSGQILFERWCIGLYNVMFTAMPPLTLGIFERSCRKENMLKYPELYKTSQNALDFNTKVFWVHCLNGLFHSVILFWFPLKALQYGTVFGNGKTSDYLLLGNFVYTFVVITVCLKAGLETSYWTWFSHIAIWGSIALWVVFFGIYSSLWPAVPMAPDMSGEAAMLFSSGVFWVGLLSIPVASLLLDVLYKVIKRTAFKTLVDEVQELEAKSQDPGAVVLGKSLTERAQLLKNVFKKNHVNLYRSESLQQNLLHGYAFSQDENGIVSQSEVIRAYDTTKQRPDEW
In the case of B1, the binding is reported as “binds”.
